The results in this text go back to PMC4489650, “Aurora-A-Dependent Control of TACC3 Influences the Rate of Mitotic Spindle Assembly” (PLoS Genetics, 2015).

By UniProt entry, the sequences of proteins in these tests, tags left out. Where a name states a change or a piece, a line headed by the entry shows the natural chain unless it says otherwise.
UniProt Q9PTG8: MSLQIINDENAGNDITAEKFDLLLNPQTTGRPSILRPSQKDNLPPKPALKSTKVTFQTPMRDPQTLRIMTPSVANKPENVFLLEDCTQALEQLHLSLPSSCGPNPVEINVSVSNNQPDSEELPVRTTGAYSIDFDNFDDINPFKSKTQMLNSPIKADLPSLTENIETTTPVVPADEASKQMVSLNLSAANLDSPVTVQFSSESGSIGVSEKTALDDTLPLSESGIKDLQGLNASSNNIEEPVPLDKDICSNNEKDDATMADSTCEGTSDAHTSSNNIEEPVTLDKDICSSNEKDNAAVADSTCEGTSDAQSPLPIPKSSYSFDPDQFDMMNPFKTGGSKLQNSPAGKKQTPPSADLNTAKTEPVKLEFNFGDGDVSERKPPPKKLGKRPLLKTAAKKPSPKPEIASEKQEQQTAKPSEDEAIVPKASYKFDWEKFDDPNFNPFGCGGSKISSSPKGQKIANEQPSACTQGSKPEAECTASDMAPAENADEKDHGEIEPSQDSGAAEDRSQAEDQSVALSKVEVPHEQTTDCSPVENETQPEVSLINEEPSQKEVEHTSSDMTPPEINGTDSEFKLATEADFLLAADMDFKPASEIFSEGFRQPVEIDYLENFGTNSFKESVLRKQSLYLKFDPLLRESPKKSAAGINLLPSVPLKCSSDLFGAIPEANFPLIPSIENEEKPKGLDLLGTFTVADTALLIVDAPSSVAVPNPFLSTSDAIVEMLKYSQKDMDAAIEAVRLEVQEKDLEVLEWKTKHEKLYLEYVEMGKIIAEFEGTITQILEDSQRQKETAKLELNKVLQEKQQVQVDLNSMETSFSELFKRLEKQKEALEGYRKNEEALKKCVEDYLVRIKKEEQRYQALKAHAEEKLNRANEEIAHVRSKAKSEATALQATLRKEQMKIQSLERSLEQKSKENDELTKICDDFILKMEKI
UniProt Q91820: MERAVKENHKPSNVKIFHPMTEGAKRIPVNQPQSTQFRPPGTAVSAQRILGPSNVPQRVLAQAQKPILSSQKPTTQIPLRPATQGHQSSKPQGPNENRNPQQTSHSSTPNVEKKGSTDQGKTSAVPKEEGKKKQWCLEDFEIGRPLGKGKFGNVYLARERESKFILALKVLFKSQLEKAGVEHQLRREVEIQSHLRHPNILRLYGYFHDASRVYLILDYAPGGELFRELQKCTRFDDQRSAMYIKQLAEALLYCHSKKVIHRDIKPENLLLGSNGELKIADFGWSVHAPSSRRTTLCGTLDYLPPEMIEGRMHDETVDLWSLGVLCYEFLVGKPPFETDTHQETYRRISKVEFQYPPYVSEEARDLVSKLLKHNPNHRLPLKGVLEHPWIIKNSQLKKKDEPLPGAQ

The test has as its target GST-XTACC3 (full-length Xenopus TACC3, maskin) (Xenopus laevis) (UniProt Q9PTG8). Nature of the test: pull-down; in vitro GST pull-down: 5-10 ug GST recombinant protein on anti-GST coated beads, 0.25 uM His-AurA in kinase buffer (20 mM Hepes pH 7.5, 200 mM KCl, 30 mM MgCl2, 0.5 mM EGTA, 1 mM DTT, 0.05% Triton X-100, 1 mg/ml BSA), 30 mins at 22 C; Western blot; both purified. A general note: Immunoblotting shows a protein as a band on a membrane.

No constants are given. Whether binding was seen depends on the method and setting. Binding can be weak; no strength is given.

On to “His-AurA–KD (Xenopus Aurora A, kinase dead) (from UniProt Q91820) (enzyme)”, for which the binding entry is “binds”.
